The source gives many values for each of these; only a part stands here.
Test system: Talaromyces emersonii (CBS 236.58)
Experiment: Heat treatment of Talaromyces emersonii spores in ice tea with natamycin, visual growth
Format: cell-based
Design: key: growth (+); no growth (−)
Protocol: Commercially available ice tea (Lipton, peach flavor, non-carbonated, 1.5 L) was adjusted to high water hardness by adding 1 ml of a solution of 39 g CaCl2 and 27 g MgCl2 added to 934 g water. ⅓ of this ice tea preparation (the pH of which was 3.15) was left as-such, ⅓ of the preparation was enriched with 5 ppm natamycin and ⅓ of the preparation was enriched with 10 ppm natamycin. Samples of 5 ml were made from each preparation in 15 ml sterile plastic tubes. Of each preparation 8 samples were pre-heated to the desired pasteurization temperature using a water bath. Temperatures used were RT, 60, 65, 70, 75, 80, 85 and 90° C. When the desired temperature was reached, 100 μl of a 2500 spores/ml spore suspension of Aspergillus niger ATCC 9029AA was added to each tube. Subsequently, the samples were kept for 30 seconds at the temperature in question in the water bath. Next, the samples were cooled on ice to a temperature of 25° C. Samples were incubated at 25° C. and visually examined for growth (formation of mold flakes or turbidity) for two months. Additionally, samples were enumerated according to ISO protocol 21527-1.2008 on day 0 (before heat treatment) and day 1 (after heat treatment) to count immediate loss of viability. […] For the results, see Table 1. […] Example 1 was repeated however with Talaromyces emersonii (CBS 236.58, 1000 spores/ml) instead of Aspergillus niger.

## C[C@@H]1C/C=C/C=C/C=C/C=C/[C@H](O[C@@H]2O[C@H](C)[C@@H](O)[C@H](N)[C@@H]2O)C[C@@H]2O[C@](O)(C[C@@H](O)C[C@H]3O[C@@H]3/C=C/C(=O)O1)C[C@H](O)[C@H]2C(=O)O [natamycin]
75°C, 5 ppm, day 1
  growth or no growth: −
75°C, 5 ppm, day 2
  growth or no growth: −
75°C, 5 ppm, day 3
  growth or no growth: −
75°C, 5 ppm, day 4
  growth or no growth: +
75°C, 5 ppm, day 5
  growth or no growth: +
75°C, 5 ppm, day 6
  growth or no growth: +
75°C, 5 ppm, day 7
  growth or no growth: +
75°C, 5 ppm, day 8
  growth or no growth: +
75°C, 5 ppm, day 11
  growth or no growth: +
75°C, 5 ppm, day 12
  growth or no growth: +
75°C, 5 ppm, day 13
  growth or no growth: +
75°C, 5 ppm, day 14
  growth or no growth: +
75°C, 10 ppm, day 1
  growth or no growth: −
75°C, 10 ppm, day 2
  growth or no growth: −
75°C, 10 ppm, day 3
  growth or no growth: −
75°C, 10 ppm, day 4
  growth or no growth: −
75°C, 10 ppm, day 5
  growth or no growth: −
75°C, 10 ppm, day 6
  growth or no growth: −
75°C, 10 ppm, day 7
  growth or no growth: −
75°C, 10 ppm, day 8
  growth or no growth: −
75°C, 10 ppm, day 9
  growth or no growth: −
75°C, 10 ppm, day 10
  growth or no growth: −
75°C, 10 ppm, day 11
  growth or no growth: −
75°C, 10 ppm, day 12
  growth or no growth: −
75°C, 10 ppm, day 13
  growth or no growth: −
75°C, 10 ppm, day 14
  growth or no growth: −
80°C, 5 ppm, day 1
  growth or no growth: −
80°C, 5 ppm, day 2
  growth or no growth: −
80°C, 5 ppm, day 3
  growth or no growth: −
80°C, 5 ppm, day 4
  growth or no growth: −
80°C, 5 ppm, day 5
  growth or no growth: −
80°C, 5 ppm, day 6
  growth or no growth: −
80°C, 5 ppm, day 7
  growth or no growth: −
80°C, 5 ppm, day 8
  growth or no growth: −
80°C, 5 ppm, day 9
  growth or no growth: −
80°C, 5 ppm, day 10
  growth or no growth: −
80°C, 5 ppm, day 11
  growth or no growth: −
80°C, 5 ppm, day 12
  growth or no growth: −
80°C, 5 ppm, day 13
  growth or no growth: −
80°C, 5 ppm, day 14
  growth or no growth: −
80°C, 10 ppm, day 1
  growth or no growth: −
80°C, 10 ppm, day 2
  growth or no growth: −
80°C, 10 ppm, day 3
  growth or no growth: −
80°C, 10 ppm, day 4
  growth or no growth: −
80°C, 10 ppm, day 5
  growth or no growth: −
80°C, 10 ppm, day 6
  growth or no growth: −
80°C, 10 ppm, day 7
  growth or no growth: −
80°C, 10 ppm, day 8
  growth or no growth: −
80°C, 10 ppm, day 9
  growth or no growth: −
80°C, 10 ppm, day 10
  growth or no growth: −
80°C, 10 ppm, day 11
  growth or no growth: −
80°C, 10 ppm, day 12
  growth or no growth: −
80°C, 10 ppm, day 13
  growth or no growth: −
80°C, 10 ppm, day 14
  growth or no growth: −
85°C, 5 ppm, day 1
  growth or no growth: −
85°C, 5 ppm, day 2
  growth or no growth: −
85°C, 5 ppm, day 3
  growth or no growth: −
85°C, 5 ppm, day 4
  growth or no growth: −
85°C, 5 ppm, day 5
  growth or no growth: −
85°C, 5 ppm, day 6
  growth or no growth: −
85°C, 5 ppm, day 7
  growth or no growth: −
85°C, 5 ppm, day 8
  growth or no growth: −
85°C, 5 ppm, day 9
  growth or no growth: −
85°C, 5 ppm, day 10
  growth or no growth: −
85°C, 5 ppm, day 11
  growth or no growth: −
85°C, 5 ppm, day 12
  growth or no growth: −
85°C, 5 ppm, day 13
  growth or no growth: −
85°C, 5 ppm, day 14
  growth or no growth: −
85°C, 10 ppm, day 1
  growth or no growth: −
85°C, 10 ppm, day 2
  growth or no growth: −
85°C, 10 ppm, day 3
  growth or no growth: −
85°C, 10 ppm, day 4
  growth or no growth: −
85°C, 10 ppm, day 5
  growth or no growth: −
85°C, 10 ppm, day 6
  growth or no growth: −
85°C, 10 ppm, day 7
  growth or no growth: −
85°C, 10 ppm, day 8
  growth or no growth: −
85°C, 10 ppm, day 9
  growth or no growth: −
85°C, 10 ppm, day 10
  growth or no growth: −
85°C, 10 ppm, day 11
  growth or no growth: −
85°C, 10 ppm, day 12
  growth or no growth: −
85°C, 10 ppm, day 13
  growth or no growth: −
85°C, 10 ppm, day 14
  growth or no growth: −
90°C, 5 ppm, day 1
  growth or no growth: −
90°C, 5 ppm, day 2
  growth or no growth: −
90°C, 5 ppm, day 3
  growth or no growth: −
90°C, 5 ppm, day 4
  growth or no growth: −
90°C, 5 ppm, day 5
  growth or no growth: −
90°C, 5 ppm, day 6
  growth or no growth: −
90°C, 5 ppm, day 7
  growth or no growth: −
90°C, 5 ppm, day 8
  growth or no growth: −
90°C, 5 ppm, day 9
  growth or no growth: −
90°C, 5 ppm, day 10
  growth or no growth: −
90°C, 5 ppm, day 11
  growth or no growth: −
90°C, 5 ppm, day 12
  growth or no growth: −
90°C, 5 ppm, day 13
  growth or no growth: −
90°C, 5 ppm, day 14
  growth or no growth: −
90°C, 10 ppm, day 1
  growth or no growth: −
90°C, 10 ppm, day 2
  growth or no growth: −
90°C, 10 ppm, day 3
  growth or no growth: −
90°C, 10 ppm, day 4
  growth or no growth: −
90°C, 10 ppm, day 5
  growth or no growth: −
90°C, 10 ppm, day 6
  growth or no growth: −
90°C, 10 ppm, day 7
  growth or no growth: −
90°C, 10 ppm, day 8
  growth or no growth: −
90°C, 10 ppm, day 9
  growth or no growth: −
90°C, 10 ppm, day 10
  growth or no growth: −
90°C, 10 ppm, day 11
  growth or no growth: −
90°C, 10 ppm, day 12
  growth or no growth: −
90°C, 10 ppm, day 13
  growth or no growth: −
90°C, 10 ppm, day 14
  growth or no growth: −
RT, 5 ppm, day 1
  growth or no growth: −
RT, 5 ppm, day 2
  growth or no growth: −
RT, 5 ppm, day 3
  growth or no growth: −
RT, 5 ppm, day 4
  growth or no growth: −
RT, 5 ppm, day 5
  growth or no growth: −
RT, 5 ppm, day 6
  growth or no growth: −
RT, 5 ppm, day 7
  growth or no growth: +
RT, 5 ppm, day 8
  growth or no growth: +
RT, 5 ppm, day 9
  growth or no growth: +
RT, 5 ppm, day 10
  growth or no growth: +
RT, 5 ppm, day 11
  growth or no growth: +
RT, 5 ppm, day 12
  growth or no growth: +
RT, 5 ppm, day 13
  growth or no growth: +
RT, 5 ppm, day 14
  growth or no growth: +

— patent US12102089B2, “Method for inactivating mold spores” (DSM IP ASSETS B.V., priority 2017, dated 2024)
